Data published in patent publication US8569344B2, “N-piperidinyl acetamide derivatives as calcium channel blockers” (Zalicus Pharmaceuticals Ltd., priority 2008, dated 2013).
Structures were worked out from names or drawings and are uncertain.

The chains behind the UniProt entries cited, without tags or fusion partners.
UniProt O95180, whole entry: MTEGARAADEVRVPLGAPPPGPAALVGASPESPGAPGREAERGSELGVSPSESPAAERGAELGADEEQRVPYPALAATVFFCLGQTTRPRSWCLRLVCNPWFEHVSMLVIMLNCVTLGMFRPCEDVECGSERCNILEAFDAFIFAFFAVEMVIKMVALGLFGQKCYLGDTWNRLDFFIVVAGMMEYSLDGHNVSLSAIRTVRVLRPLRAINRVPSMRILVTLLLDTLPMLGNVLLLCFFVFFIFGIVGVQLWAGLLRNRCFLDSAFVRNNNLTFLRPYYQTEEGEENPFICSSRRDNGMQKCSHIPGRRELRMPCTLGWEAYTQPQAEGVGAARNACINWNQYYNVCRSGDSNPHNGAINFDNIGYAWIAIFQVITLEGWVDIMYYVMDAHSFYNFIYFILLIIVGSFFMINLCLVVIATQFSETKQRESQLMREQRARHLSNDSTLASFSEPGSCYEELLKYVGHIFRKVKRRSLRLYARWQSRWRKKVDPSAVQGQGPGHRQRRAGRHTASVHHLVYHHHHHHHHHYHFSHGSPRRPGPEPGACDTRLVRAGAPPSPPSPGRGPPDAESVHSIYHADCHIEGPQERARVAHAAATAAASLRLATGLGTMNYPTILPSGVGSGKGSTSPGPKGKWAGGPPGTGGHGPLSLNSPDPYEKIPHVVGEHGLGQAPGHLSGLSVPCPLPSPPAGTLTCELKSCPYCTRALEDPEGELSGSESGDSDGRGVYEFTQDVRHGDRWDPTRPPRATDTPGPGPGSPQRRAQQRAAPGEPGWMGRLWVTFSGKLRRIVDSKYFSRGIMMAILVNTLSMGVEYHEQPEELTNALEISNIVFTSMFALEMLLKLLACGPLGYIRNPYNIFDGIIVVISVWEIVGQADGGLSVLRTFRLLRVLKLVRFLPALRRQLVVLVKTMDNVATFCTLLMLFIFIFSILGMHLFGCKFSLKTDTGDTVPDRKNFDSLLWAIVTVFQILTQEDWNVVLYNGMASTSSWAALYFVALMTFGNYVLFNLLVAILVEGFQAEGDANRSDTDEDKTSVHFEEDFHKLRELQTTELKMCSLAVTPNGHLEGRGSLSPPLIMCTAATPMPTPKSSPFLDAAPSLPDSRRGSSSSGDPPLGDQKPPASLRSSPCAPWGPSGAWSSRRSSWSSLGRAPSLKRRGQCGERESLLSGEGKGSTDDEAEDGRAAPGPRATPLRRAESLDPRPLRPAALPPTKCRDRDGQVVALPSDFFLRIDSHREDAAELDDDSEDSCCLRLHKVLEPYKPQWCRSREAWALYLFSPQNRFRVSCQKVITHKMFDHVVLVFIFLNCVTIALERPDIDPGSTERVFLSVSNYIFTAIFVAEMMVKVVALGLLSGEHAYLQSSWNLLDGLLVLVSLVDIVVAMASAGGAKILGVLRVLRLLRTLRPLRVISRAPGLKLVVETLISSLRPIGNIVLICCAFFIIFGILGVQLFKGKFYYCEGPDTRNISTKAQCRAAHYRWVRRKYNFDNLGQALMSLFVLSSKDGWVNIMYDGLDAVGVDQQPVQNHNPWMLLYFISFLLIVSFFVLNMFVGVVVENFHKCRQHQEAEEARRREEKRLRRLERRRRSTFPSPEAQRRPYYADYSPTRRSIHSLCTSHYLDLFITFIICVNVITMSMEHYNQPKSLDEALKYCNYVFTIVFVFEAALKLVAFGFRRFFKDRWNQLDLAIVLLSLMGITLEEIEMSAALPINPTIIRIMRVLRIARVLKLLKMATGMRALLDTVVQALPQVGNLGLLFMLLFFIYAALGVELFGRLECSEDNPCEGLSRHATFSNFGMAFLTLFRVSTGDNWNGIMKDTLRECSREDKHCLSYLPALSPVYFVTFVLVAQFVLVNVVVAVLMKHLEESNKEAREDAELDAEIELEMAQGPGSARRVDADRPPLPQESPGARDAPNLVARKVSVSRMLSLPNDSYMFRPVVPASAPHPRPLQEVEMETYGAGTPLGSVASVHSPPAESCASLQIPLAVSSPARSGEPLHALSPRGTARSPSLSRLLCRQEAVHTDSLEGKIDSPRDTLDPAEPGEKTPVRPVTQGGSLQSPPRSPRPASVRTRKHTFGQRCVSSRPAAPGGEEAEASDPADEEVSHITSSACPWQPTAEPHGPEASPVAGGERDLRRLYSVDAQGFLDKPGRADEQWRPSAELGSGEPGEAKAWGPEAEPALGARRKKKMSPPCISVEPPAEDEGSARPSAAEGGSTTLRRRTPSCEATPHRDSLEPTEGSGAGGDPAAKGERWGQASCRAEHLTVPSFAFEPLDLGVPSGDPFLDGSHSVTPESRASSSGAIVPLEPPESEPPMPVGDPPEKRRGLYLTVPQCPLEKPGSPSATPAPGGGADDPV
UniProt O43497, whole entry: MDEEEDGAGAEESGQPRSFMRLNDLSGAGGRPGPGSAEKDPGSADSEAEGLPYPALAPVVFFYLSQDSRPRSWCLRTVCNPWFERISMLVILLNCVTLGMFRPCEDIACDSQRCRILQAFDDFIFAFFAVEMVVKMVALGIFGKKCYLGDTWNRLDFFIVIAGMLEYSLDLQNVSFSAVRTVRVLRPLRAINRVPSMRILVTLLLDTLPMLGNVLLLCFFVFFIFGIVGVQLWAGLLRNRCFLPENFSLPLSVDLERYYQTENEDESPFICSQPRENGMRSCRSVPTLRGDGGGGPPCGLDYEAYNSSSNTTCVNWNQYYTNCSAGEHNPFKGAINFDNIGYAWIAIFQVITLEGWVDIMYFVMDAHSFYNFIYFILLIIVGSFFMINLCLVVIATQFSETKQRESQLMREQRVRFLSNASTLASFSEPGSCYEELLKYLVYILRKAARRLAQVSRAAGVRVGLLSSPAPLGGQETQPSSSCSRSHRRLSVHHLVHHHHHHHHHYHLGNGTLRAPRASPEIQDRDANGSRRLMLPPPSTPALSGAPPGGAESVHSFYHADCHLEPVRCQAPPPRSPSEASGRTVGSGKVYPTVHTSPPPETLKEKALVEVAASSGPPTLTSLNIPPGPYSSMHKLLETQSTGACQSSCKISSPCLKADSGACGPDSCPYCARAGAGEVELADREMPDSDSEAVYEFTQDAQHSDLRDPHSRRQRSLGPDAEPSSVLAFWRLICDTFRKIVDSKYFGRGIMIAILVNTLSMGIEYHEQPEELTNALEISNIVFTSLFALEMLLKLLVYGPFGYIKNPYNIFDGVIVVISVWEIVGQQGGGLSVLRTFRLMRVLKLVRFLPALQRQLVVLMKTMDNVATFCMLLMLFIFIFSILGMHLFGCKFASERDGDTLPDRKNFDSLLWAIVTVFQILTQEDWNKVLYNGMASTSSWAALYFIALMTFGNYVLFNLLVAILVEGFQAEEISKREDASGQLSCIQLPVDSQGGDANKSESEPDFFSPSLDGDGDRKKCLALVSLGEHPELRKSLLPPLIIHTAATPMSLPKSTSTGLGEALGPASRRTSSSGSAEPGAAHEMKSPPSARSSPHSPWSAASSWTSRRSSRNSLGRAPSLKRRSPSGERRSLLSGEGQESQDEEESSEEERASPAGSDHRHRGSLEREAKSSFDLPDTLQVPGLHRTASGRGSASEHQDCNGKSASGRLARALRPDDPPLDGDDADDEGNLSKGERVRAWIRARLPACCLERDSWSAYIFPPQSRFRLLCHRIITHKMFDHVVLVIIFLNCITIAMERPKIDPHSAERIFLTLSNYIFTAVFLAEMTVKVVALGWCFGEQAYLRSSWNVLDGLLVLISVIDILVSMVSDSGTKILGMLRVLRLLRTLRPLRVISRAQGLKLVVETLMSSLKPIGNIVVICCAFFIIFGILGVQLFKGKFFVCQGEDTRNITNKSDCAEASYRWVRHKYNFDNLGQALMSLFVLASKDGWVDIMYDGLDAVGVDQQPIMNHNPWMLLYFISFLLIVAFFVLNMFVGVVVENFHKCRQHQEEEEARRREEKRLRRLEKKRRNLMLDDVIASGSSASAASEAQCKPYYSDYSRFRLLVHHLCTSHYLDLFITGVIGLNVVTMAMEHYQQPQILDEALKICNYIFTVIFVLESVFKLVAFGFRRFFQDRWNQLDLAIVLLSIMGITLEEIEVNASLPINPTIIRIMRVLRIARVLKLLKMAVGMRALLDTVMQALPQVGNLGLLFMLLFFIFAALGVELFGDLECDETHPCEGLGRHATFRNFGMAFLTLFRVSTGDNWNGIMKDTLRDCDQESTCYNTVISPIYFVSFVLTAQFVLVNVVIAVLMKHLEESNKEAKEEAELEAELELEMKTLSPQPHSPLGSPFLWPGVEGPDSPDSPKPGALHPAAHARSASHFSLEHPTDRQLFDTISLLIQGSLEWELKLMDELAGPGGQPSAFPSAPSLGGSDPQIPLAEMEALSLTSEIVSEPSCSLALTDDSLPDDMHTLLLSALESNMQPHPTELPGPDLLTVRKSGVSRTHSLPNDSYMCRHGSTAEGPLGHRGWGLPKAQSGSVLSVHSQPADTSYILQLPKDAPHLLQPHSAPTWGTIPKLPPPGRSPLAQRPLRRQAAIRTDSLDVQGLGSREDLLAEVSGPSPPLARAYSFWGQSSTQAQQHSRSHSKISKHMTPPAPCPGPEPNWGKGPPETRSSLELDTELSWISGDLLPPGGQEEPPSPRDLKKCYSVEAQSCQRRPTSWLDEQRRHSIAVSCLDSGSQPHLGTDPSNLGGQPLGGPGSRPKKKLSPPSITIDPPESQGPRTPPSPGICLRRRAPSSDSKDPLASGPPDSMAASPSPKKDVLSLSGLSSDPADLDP

Experiments:
[1] = molecular target: human α1H T-type channels (Homo sapiens, UniProt O95180); test: T-type calcium channel block, whole cell patch clamp in HEK cells (α1H); format: cell-based; details: read-out: T-type Calcium Channel Block α1H IC50, mainly non-inactivated protocol, values above 10 μM shown as 10 μM
[2] = molecular target: human α1G T-type channels (Homo sapiens, UniProt O43497); test: T-type calcium channel block, whole cell patch clamp in HEK cells (α1G); format: cell-based; details: read-out: T-type Calcium Channel Block α1G IC50, mainly non-inactivated protocol, values above 10 μM shown as 10 μM, below 0.30 μM shown as 0.30 μM

Structure (SMILES) | IC50 [1] [µM] | IC50 [2] [µM]
Cc1cc(C)cc(C(=O)NCC2CCN(CCNS(=O)(=O)C(F)(F)F)CC2)c1 | > 10 | 
CC1CCCN(CC(=O)N2CCC(CNC(=O)c3cc(C(F)(F)F)cc(C(F)(F)F)c3)CC2)C1 (stereo not drawn) | 1.19 | 2.48
